Measured values: publication PMC4906230
No constants are given. Whether binding was seen depends on the method and setting. Binding seen in cells or lysates may run through a third protein. A result given as binding can be weak or reduced; the word gives no strength.

Chains of the proteins cited; added tags and fusions are not shown. Lines headed by an entry give the natural chain unless they say otherwise; changes in a name come on top.
UniProt P31431: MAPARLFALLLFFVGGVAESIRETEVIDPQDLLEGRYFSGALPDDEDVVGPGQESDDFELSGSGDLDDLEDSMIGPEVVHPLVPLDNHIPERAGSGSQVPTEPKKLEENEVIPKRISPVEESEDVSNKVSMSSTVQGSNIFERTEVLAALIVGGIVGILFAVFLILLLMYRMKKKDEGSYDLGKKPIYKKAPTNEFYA
UniProt O95786: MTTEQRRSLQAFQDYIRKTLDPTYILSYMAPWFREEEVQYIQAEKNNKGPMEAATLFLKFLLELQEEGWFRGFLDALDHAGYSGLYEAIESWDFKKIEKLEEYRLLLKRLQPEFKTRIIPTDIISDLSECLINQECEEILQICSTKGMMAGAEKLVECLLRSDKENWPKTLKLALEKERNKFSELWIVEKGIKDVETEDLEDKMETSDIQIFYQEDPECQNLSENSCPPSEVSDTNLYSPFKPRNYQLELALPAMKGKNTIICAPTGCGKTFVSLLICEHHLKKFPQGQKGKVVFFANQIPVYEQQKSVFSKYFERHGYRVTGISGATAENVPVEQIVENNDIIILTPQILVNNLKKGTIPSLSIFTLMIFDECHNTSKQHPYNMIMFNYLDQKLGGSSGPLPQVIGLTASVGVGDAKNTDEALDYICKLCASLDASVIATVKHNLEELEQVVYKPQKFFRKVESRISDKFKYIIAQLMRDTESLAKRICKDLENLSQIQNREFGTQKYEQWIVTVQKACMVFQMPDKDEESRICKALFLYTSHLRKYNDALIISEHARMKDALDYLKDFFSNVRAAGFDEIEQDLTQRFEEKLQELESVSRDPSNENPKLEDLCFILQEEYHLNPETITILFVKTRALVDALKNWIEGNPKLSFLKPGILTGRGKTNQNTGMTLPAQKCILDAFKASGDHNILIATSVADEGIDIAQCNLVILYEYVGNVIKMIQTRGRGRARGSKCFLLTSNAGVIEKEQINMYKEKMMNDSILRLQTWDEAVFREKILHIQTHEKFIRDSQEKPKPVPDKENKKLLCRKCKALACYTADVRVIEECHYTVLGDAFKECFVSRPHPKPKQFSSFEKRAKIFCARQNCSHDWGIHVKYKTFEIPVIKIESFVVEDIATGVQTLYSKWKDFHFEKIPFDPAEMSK

Target: SDC4ΔTM (SDC4 with the transmembrane domain deleted) (human) (UniProt P31431)
Experiment: co-IP; HEK293 cells transfected with epitope-tagged expression plasmids, lysed 24 h later; lysates immunoprecipitated with anti-Myc or anti-Flag beads and immunoblotted; in Fig. 7f,g with SDC4 overexpressed or knocked down by siRNA

binding: binds
Substance: RIG-I, transfected, construct not told for the experiment (from UniProt O95786 1-925)
